A short description of data set [1]: general procedure: Boc solid-phase peptide synthesis. The conditions noted are these: whole synthesis, sodium salt.
Data set [2] can be described thus: general procedure: Boc solid-phase peptide synthesis; benzhydrylamine resin. As to conditions: whole synthesis, scale 1 g of peptide resin, sodium salt.

“Pyr-Gly-Pro-Pro-Ile-Ser-Ile-Asp-Leu-Ser-Leu-Glu-Leu-OH sodium salt”: the isolated mass in data set [1] (scale 1 g of peptide resin) turned out to be 0.120 g.

For the substance “Pyr-Gly-Pro-Pro-Ile-Ser-Ile-Asp-Leu-Ser-Leu-Glu-Leu-NH2 Sodium salt”, the isolated mass in data set [2] is recorded as 0.130 g.

For “H-Gln-Glu-Pro-Pro-Ile-Ser-Leu-Asp-Leu-Thr-Phe-OH Sodium salt”, the isolated mass in data set [1] (scale 1 g of peptide-resin) worked out at 0.130 g.

With “H-Gly-Pro-Pro-Ile-Ser-Ile-Asp-Leu-Ser-Leu-Glu-Leu-OH sodium salt”, the isolated mass in data set [1] (scale 1 g of peptide resin) is on record as 0.110 g.

In the case of “H-Gly-Pro-Pro-Ile-Ser-Ile-Asp-Leu-Ser-Leu-Glu-Leu-NH2 sodium salt”, the isolated mass in data set [2] came to 0.110 g.

The values are drawn from patent publication US4474765A (Farmitalia Carlo Erba S.p.A., priority 1982, dated 1984).
